Values from PubChem BioAssay AID652243 (Drosophila RNAi Screening Center, 2013).

Purpose: 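Knock-downs that decrease or increase androgen receptor reporter signal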 (primary screen)
System: Drosophila S2R+ cells
Reagent: long dsRNA against Drosophila genes
Time to read-out: 72 h (48 h, then 24 h hormone)
Challenge: synthetic androgen R1881 at 10 nM for 24 h
Detection: 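Firefly light from an androgen-responsive reporter and Renilla control light per well, raw and unnormalised, for each of two replicates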
Reading the numbers: firefly reporter light: higher = more light from androgen-responsive reporter; Renilla control light: higher = more constitutive control signal (cell number, transfection)
Rule for the call: 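Across duplicate plates, a knock-down whose log firefly/Renilla ratio shifted a set fold down or up from the GFP/LacZ control mean was a hit; the downward cut appears as both 1.5 and 3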
Meaning of the calls: active = hit: reporter lowered or raised; inactive = no hit
In all, the deposit lists about 24,000 reagents; below is a random part of those that have a named target and a result. Over the whole deposit, 246 (1%) are marked active. 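Plates not normalised; calls are printed but the firefly/Renilla ratio behind them is not deposited; fold cut for lowering reported inconsistently.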 Raw values are not corrected between plates. A plus sign joins genes that one reagent is predicted to hit. Not stated in the record: the amount of reagent.

ox (oxen) [DRSC07520] — firefly reporter light, replicate 1 = 3.02e5; firefly reporter light, replicate 2 = 2.09e5; Renilla control light, replicate 1 = 1.92e6; Renilla control light, replicate 2 = 1.84e6; Call = inactive
plum [DRSC16054] — firefly reporter light, replicate 1 = 66372; firefly reporter light, replicate 2 = 52964; Renilla control light, replicate 1 = 4.52e5; Renilla control light, replicate 2 = 4.01e5; Call = inactive
CG6310 [DRSC10619] — firefly reporter light, replicate 1 = 2.67e5; firefly reporter light, replicate 2 = 2.65e5; Renilla control light, replicate 1 = 3.67e6; Renilla control light, replicate 2 = 2.55e6; Call = inactive
Ugt302C1 (UDP-glycosyltransferase family 302 member C1) [DRSC15353] — firefly reporter light, replicate 1 = 80648; firefly reporter light, replicate 2 = 73217; Renilla control light, replicate 1 = 4.45e5; Renilla control light, replicate 2 = 3.87e5; Call = inactive
Ugt302C1 (UDP-glycosyltransferase family 302 member C1) [DRSC24517] — firefly reporter light, replicate 1 = 9.98e5; firefly reporter light, replicate 2 = 4.80e5; Renilla control light, replicate 1 = 1.69e6; Renilla control light, replicate 2 = 6.16e5; Call = inactive
CG33159 [DRSC08199] — firefly reporter light, replicate 1 = 4.21e5; firefly reporter light, replicate 2 = 5.44e5; Renilla control light, replicate 1 = 3.44e6; Renilla control light, replicate 2 = 4.27e6; Call = inactive
CG13623 [DRSC14625] — firefly reporter light, replicate 1 = 2.00e5; firefly reporter light, replicate 2 = 1.85e5; Renilla control light, replicate 1 = 1.14e6; Renilla control light, replicate 2 = 1.33e6; Call = inactive
CG8773 [DRSC16444] — firefly reporter light, replicate 1 = 47782; firefly reporter light, replicate 2 = 39330; Renilla control light, replicate 1 = 2.96e5; Renilla control light, replicate 2 = 4.32e5; Call = inactive
CG8773 [DRSC23903] — firefly reporter light, replicate 1 = 7.18e5; firefly reporter light, replicate 2 = 8.23e5; Renilla control light, replicate 1 = 8.50e5; Renilla control light, replicate 2 = 8.25e5; Call = inactive
ara (araucan) [DRSC22984] — firefly reporter light, replicate 1 = 6.00e5; firefly reporter light, replicate 2 = 8.67e5; Renilla control light, replicate 1 = 7.57e5; Renilla control light, replicate 2 = 1.20e6; Call = inactive
ara (araucan) [DRSC25783] — firefly reporter light, replicate 1 = 2.23e5; firefly reporter light, replicate 2 = 3.49e5; Renilla control light, replicate 1 = 6.97e5; Renilla control light, replicate 2 = 6.33e5; Call = inactive
Cpr65Ax2 + Cpr65Ax1 [DRSC10341] — firefly reporter light, replicate 1 = 2.06e5; firefly reporter light, replicate 2 = 2.78e5; Renilla control light, replicate 1 = 2.42e6; Renilla control light, replicate 2 = 3.30e6; Call = inactive
Cpr65Ax2 + Cpr65Ax1 [DRSC10344] — firefly reporter light, replicate 1 = 2.32e5; firefly reporter light, replicate 2 = 1.93e5; Renilla control light, replicate 1 = 2.53e6; Renilla control light, replicate 2 = 2.24e6; Call = inactive
CG8586 [DRSC07218] — firefly reporter light, replicate 1 = 7.91e5; firefly reporter light, replicate 2 = 7.75e5; Renilla control light, replicate 1 = 1.13e6; Renilla control light, replicate 2 = 1.46e6; Call = inactive
janA (janus A) [DRSC16972] — firefly reporter light, replicate 1 = 2.21e5; firefly reporter light, replicate 2 = 1.86e5; Renilla control light, replicate 1 = 1.94e6; Renilla control light, replicate 2 = 2.94e6; Call = inactive
janA (janus A) [DRSC26590] — firefly reporter light, replicate 1 = 5.75e5; firefly reporter light, replicate 2 = 8.28e5; Renilla control light, replicate 1 = 5.83e5; Renilla control light, replicate 2 = 7.05e5; Call = inactive
CG4995 [DRSC02801] — firefly reporter light, replicate 1 = 6.95e5; firefly reporter light, replicate 2 = 9.13e5; Renilla control light, replicate 1 = 1.65e6; Renilla control light, replicate 2 = 2.71e6; Call = inactive
c11.1 [DRSC18749] — firefly reporter light, replicate 1 = 1.73e5; firefly reporter light, replicate 2 = 2.20e5; Renilla control light, replicate 1 = 2.31e6; Renilla control light, replicate 2 = 2.04e6; Call = inactive
CG16984 [DRSC08500] — firefly reporter light, replicate 1 = 1.24e5; firefly reporter light, replicate 2 = 1.33e5; Renilla control light, replicate 1 = 1.71e6; Renilla control light, replicate 2 = 1.67e6; Call = inactive
CG16984 [DRSC28605] — firefly reporter light, replicate 1 = 3.04e5; firefly reporter light, replicate 2 = 3.08e5; Renilla control light, replicate 1 = 1.05e6; Renilla control light, replicate 2 = 1.09e6; Call = inactive
rl (rolled) [DRSC07833] — firefly reporter light, replicate 1 = 2.14e5; firefly reporter light, replicate 2 = 2.60e5; Renilla control light, replicate 1 = 1.98e6; Renilla control light, replicate 2 = 2.25e6; Call = inactive
rl (rolled) [DRSC20742] — firefly reporter light, replicate 1 = 2.23e5; firefly reporter light, replicate 2 = 1.99e5; Renilla control light, replicate 1 = 5.79e5; Renilla control light, replicate 2 = 6.12e5; Call = inactive
rl (rolled) [DRSC21814] — firefly reporter light, replicate 1 = 4.74e5; firefly reporter light, replicate 2 = 4.97e5; Renilla control light, replicate 1 = 2.40e6; Renilla control light, replicate 2 = 3.82e6; Call = inactive
CG9411 [DRSC20184] — firefly reporter light, replicate 1 = 62789; firefly reporter light, replicate 2 = 62854; Renilla control light, replicate 1 = 9.28e5; Renilla control light, replicate 2 = 8.84e5; Call = inactive
CG9411 [DRSC26840] — firefly reporter light, replicate 1 = 4.00e5; firefly reporter light, replicate 2 = 3.89e5; Renilla control light, replicate 1 = 6.75e5; Renilla control light, replicate 2 = 8.59e5; Call = inactive
CG34205 [DRSC04149] — firefly reporter light, replicate 1 = 3.41e5; firefly reporter light, replicate 2 = 3.54e5; Renilla control light, replicate 1 = 2.65e6; Renilla control light, replicate 2 = 2.24e6; Call = inactive
CG34205 [DRSC22823] — firefly reporter light, replicate 1 = 6.52e5; firefly reporter light, replicate 2 = 1.12e6; Renilla control light, replicate 1 = 1.33e6; Renilla control light, replicate 2 = 2.34e6; Call = inactive

Part of the list above, reformatted:
Target gene,DRSC id,"firefly reporter light, replicate 1","firefly reporter light, replicate 2","Renilla control light, replicate 1","Renilla control light, replicate 2",Call
CG16984,DRSC08500,1.24e5,1.33e5,1.71e6,1.67e6,inactive
CG16984,DRSC28605,3.04e5,3.08e5,1.05e6,1.09e6,inactive
rl (rolled),DRSC07833,2.14e5,2.60e5,1.98e6,2.25e6,inactive
rl (rolled),DRSC20742,2.23e5,1.99e5,5.79e5,6.12e5,inactive
